Measurements reported in patent US11959104B2, “Methods of differentiating stem cell-derived ectodermal lineage precursors” (MEMORIAL SLOAN-KETTERING CANCER CENTER, priority 2016, dated 2024).
Entries after “also recorded” stand apart in the source; their conditions may differ. For at least one compound, name, drawing or mass did not settle the structure.

Test system: hPSC-derived pituitary cells
Assay: Stimulation of hormone release in vitro (ELISA)
Format: cell-based, human
Conditions: day 30 of differentiation
Protocol: To stimulate hormone release in vitro, cells were differentiated in 24 well plates as described above. On day 30 of differentiation cells were washed once with PBS and 250 μl of fresh medium containing either the solvent or the stimulant were added to each well. After 12 h the supernatant was removed and centrifuged for 5 min at 2000 g to pellet debris. Supernatant was transferred into fresh reaction tubes, flash frozen and stored at −80° C. until ELISA measurements. Stimulants used were: CRF (Tocris, 1 μM), Stressin I (Tocris, 2 μM), Ghrelin (Tocris, 1 μM), Somatocrinin (Accurate Chemical, 1 μg/ml), Nafarelin (Tocris, 1 μM) and Urocortin (Tocris, 500 nM).
Hormone concentration in the supernatant of cells or in animal serum was analyzed using ELISA measurements. Hormone concentration in the cell culture supernatant was assessed using traditional single hormone ELISA Kits according to the manufactures manual. […] Cytokine concentrations were determined by Luminex Xponent 4.1 and EMD-Millipore Milliplex Analyst v5.1 using 5-p log analysis.

CC(C)C[C@H](NC(=O)[C@@H](Cc1ccc2ccccc2c1)NC(=O)[C@H](Cc1ccc(O)cc1)NC(=O)[C@H](CO)NC(=O)[C@H](Cc1c[nH]c2ccccc12)NC(=O)[C@H](Cc1c[nH]cn1)NC(=O)[C@@H]1CCC(=O)N1)C(=O)N[C@@H](CCCNC(=N)N)C(=O)N1CCC[C@H]1C(=O)NCC(N)=O [Nafarelin]
FSH release: induction of FSH; also recorded: induced
